Data from patent US20090068195A1.
Results are given in words; binding and its absence hold for the method and conditions named. Some results given as binding are weak or reduced against the parent protein; the word gives no strength. Sequences can lack the tags named with a protein.

Protein sequences, listed by entry. Tags and fused reporters are not part of them. Lines headed by an entry give the natural chain unless they say otherwise; changes in a name come on top.
UniProt Q5I6E4: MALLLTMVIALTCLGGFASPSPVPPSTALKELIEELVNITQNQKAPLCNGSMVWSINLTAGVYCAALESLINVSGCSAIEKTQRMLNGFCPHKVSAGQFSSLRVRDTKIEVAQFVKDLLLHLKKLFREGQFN

How the values were obtained:
[1] = molecular target: T1, sIL-13Rα2-Fc (soluble human IL-13 receptor alpha 2 Fc fusion) (human) (UniProt Q14627); experiment: ELISA: FLAG-tagged NHP IL-13 on plate-coated IL-13Ralpha2-Fc
T1 sequence (looked up): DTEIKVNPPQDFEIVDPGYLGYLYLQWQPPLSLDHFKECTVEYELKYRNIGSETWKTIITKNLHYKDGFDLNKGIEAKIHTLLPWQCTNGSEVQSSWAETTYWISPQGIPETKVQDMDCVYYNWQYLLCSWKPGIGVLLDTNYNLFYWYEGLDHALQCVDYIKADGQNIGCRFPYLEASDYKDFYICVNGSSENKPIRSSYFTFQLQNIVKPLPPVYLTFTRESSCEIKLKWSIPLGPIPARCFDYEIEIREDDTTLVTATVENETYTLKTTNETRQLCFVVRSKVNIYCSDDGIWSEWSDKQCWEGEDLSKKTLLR

[2] = molecular target: T2, recombinant soluble human IL-13Rα1-Fc (human) (UniProt P78552); experiment: ELISA: FLAG-tagged NHP IL-13 on plate-coated IL-13Ralpha1-Fc
T2 sequence: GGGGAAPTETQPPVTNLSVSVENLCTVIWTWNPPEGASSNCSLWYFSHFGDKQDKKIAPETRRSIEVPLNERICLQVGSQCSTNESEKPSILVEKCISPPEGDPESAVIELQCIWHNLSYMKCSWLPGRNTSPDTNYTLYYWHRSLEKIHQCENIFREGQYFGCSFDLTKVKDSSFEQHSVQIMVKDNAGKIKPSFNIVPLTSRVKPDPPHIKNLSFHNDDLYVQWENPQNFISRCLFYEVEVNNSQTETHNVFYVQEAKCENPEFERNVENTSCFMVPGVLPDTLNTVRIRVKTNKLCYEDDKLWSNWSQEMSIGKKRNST

- binding [1]: binds
- binding [2]: binds
Substance: FLAG-tagged NHP IL-13 (from UniProt Q5I6E4 21-132) (ligand)
